Experimental data published in patent US20100021918A1, “METHOD FOR ASSAYING ACTION OF ANTITUMOR AGENT USING SPLICING DEFECTS AS INDEX” (Eisai R&D Management Co., Ltd., priority 2007, published 2010).
This continues a long series; more values of the same kind are listed elsewhere.

Tested on: peripheral blood mononuclear cells (PBMC)
Test: Microarray analysis (3), dose-dependent intron expression in PBMC at 3, 10, 30 nM, Table 5
Format: cell-based, human
Description: PBMC was suspended in RPMI1640 medium (containing 10% FBS, penicillin, and streptomycin) to 5×10^6 cells/ml and 1 ml of the suspension was plated per well of a 24-well plate. Immediately, 111 μl of 10 times-concentrated (8E,12E,14E)-7-((4-cycloheptylpiperazin-1-yl)carbonyl)oxy-3,6,16,21-tetrahydroxy-6,10,12,16,20-pentamethyl-18,19-epoxytricosa-8,12,14-trien-11-olide was added to the well (six wells per each concentration tested). The cells were then cultured in an incubator with 5% carbon dioxide gas at 37° C. Three hours later, the supernatant was collected and centrifuged at 1500 rpm for five minutes. TRI reagent (SIGMA) (1 ml) was added to each well of the plate from which the supernatant was removed to harvest the cells, which was added to the centrifuged pellet to dissolve. RNA was purified in accordance with the protocol of TRI reagent. RNA was further purified using RNeasy (QIAGEN) and, in accordance with the protocol, DNaseI was added to the samples during the procedure. Absorbance at 260 nm was measured to quantify an amount of RNA.
Ribosomal RNA was removed from 1 μg of each total RNA of control cells (n=3) and cells with the treatment (n=3) using RiboMinus Human/Mouse Transcriptome Isolation Kit (Invitrogen). Single stranded cDNA synthesis, double stranded cDNA synthesis, cRNA synthesis, second single stranded cDNA synthesis, cDNA fragmentation, and cDNA labeling in order were carried out for total RNA from which ribosomal RNA was removed, using GeneChip Whole Transcript Sense Target Labeling and Control Reagents (Affymetrix) to make a cDNA probe. Subsequently, the cDNA probe was used for hybridization with Human Exon 1.0 ST Array (Affymetrix). The array was washed and stained, and luminescence intensity was measured by a scanner.
The expression level of the probe set and the gene was quantified by using Expression Console Ver. 1.0 (Affymetrix) with Summarization Method and Normalization Method being set to “Median polish as used in RMA” and “None”, respectively. The expression level of the probe was normalized with that of the gene.
Probe sets showing that the normalized change in the level expression of the probe set in the group with the treatment at 30 nM was more than 5 times; the expression level of the probe set and the gene in the group with the treatment at 30 nM was more than 100; and probe set annotation was “extended, full, free”, were picked out. Regression analysis was performed with the probe sets extracted for the control group, the group with the treatment at 3 nM, the group with the treatment at 10 nM, and the group with the treatment at 30 nM to determine a p and q value for the slope of regression formula. A gene containing the probe sets with the q value of less than 5% was determined as a candidate gene with increased expression level of the intron regions (Table 5).
In Table 5, for the gene evaluated, gene name (Gene Name), abbreviated name (Gene Symbol), accession number (Accession), alias name (Synonym), transcription cluster number in Human Exon 1.0 ST Array (Human Exon 1.0 ST Array Transcription Cluster ID), chromosome number (Chromosome), type of strand (Strand), start region (Start), stop region (Stop), and change in expression level per 1 nM (Fold Change/nM) were respectively shown.

Measured: Fold Change/nM

CCC(O)C(C)C1OC1CC(C)(O)/C=C/C=C(\C)C1OC(=O)CC(O)CCC(C)(O)C(OC(=O)N2CCN(C3CCCCCC3)CC2)/C=C/C1C (centres unmarked) [E7107, (8E,12E,14E)-7-((4-cycloheptylpiperazin-1-yl)carbonyl)oxy-3,6,16,21-tetrahydroxy-6,10,12,16,20-pentamethyl-18,19-epoxytricosa-8,12,14-trien-11-olide]
1.07 nM⁻¹: introns of gene AP3B1, regression over control, 3, 10, 30 nM | introns of gene ATP13A3, regression over control, 3, 10, 30 nM
1.05 nM⁻¹: introns of gene ADAM19, regression over control, 3, 10, 30 nM | introns of gene AHSA1, regression over control, 3, 10, 30 nM | introns of gene ATG9A // ABCB6, regression over control, 3, 10, 30 nM | introns of gene BCL11B, regression over control, 3, 10, 30 nM | introns of gene BCLAF1, regression over control, 3, 10, 30 nM
1.06 nM⁻¹: introns of gene AAK1, regression over control, 3, 10, 30 nM | introns of gene ABL2, regression over control, 3, 10, 30 nM | introns of gene AFF4, regression over control, 3, 10, 30 nM | introns of gene AHR, regression over control, 3, 10, 30 nM | introns of gene AKNA, regression over control, 3, 10, 30 nM | introns of gene ANKRD17, regression over control, 3, 10, 30 nM | introns of gene ARFGEF1, regression over control, 3, 10, 30 nM | introns of gene ARID4B // RBM34, regression over control, 3, 10, 30 nM | introns of gene ATP2B1, regression over control, 3, 10, 30 nM | introns of gene ATP6V1B2, regression over control, 3, 10, 30 nM | introns of gene BACH2, regression over control, 3, 10, 30 nM | introns of gene BNIP2, regression over control, 3, 10, 30 nM
1.04 nM⁻¹: intron expression of gene GPR132 (cluster 3581404), slope over control, 3, 10, 30 nM | intron expression of gene HCK (cluster 3881651), slope over control, 3, 10, 30 nM | intron expression of gene ICAM1 (cluster 3820443), slope over control, 3, 10, 30 nM | intron expression of gene IQGAP1 (cluster 3608113), slope over control, 3, 10, 30 nM | intron expression of gene KIAA0368 (cluster 3220513), slope over control, 3, 10, 30 nM | intron expression of gene KIAA1468 (cluster 3791168), slope over control, 3, 10, 30 nM | intron expression of gene KIAA1967 (cluster 3089597), slope over control, 3, 10, 30 nM | intron expression of gene KLHL18 (cluster 2621275), slope over control, 3, 10, 30 nM | intron expression of gene MTF2 (cluster 2346934), slope over control, 3, 10, 30 nM | intron expression of gene NKTR (cluster 2619344), slope over control, 3, 10, 30 nM | intron expression of gene NOL9 (cluster 2394784), slope over control, 3, 10, 30 nM | intron expression of gene NOP5/NOP58 (cluster 2523144), slope over control, 3, 10, 30 nM | intron expression of gene NUBP1 (cluster 3647956), slope over control, 3, 10, 30 nM | intron expression of gene OGDH (cluster 2999948), slope over control, 3, 10, 30 nM | intron expression of gene PAPOLA (cluster 3550392), slope over control, 3, 10, 30 nM | intron expression of gene PITPNB (cluster 3956290), slope over control, 3, 10, 30 nM | intron expression of gene PSMC4 (cluster 3833291), slope over control, 3, 10, 30 nM | intron expression of gene RBM6 (cluster 2622359), slope over control, 3, 10, 30 nM | intron expression of gene SFRS10 (cluster 2709062), slope over control, 3, 10, 30 nM | intron expression of gene SIN3A (cluster 3633403), slope over control, 3, 10, 30 nM | intron expression of gene SRCAP (cluster 3656418), slope over control, 3, 10, 30 nM | intron expression of gene TM9SF3 (cluster 3301857), slope over control, 3, 10, 30 nM | intron expression of gene TOMM70A (cluster 2686371), slope over control, 3, 10, 30 nM | intron expression of gene UBE2B (cluster 2829275), slope over control, 3, 10, 30 nM | intron expression of gene XPO4 (cluster 3504434), slope over control, 3, 10, 30 nM | intron expression of gene XRN2 (cluster 3879467), slope over control, 3, 10, 30 nM | intron expression of gene YIPF3 // C6orf154 (cluster 2954646), slope over control, 3, 10, 30 nM | intron expression of gene ZNF410 (cluster 3543884), slope over control, 3, 10, 30 nM | introns of gene ACTB, regression over control, 3, 10, 30 nM | introns of gene AGPAT3, regression over control, 3, 10, 30 nM | introns of gene ALDOA, regression over control, 3, 10, 30 nM | introns of gene ARF4, regression over control, 3, 10, 30 nM | introns of gene BLR1, regression over control, 3, 10, 30 nM | introns of gene BOLA1, regression over control, 3, 10, 30 nM | introns of gene BXDC2, regression over control, 3, 10, 30 nM
1.08 nM⁻¹: introns of gene ABCA1, regression over control, 3, 10, 30 nM | introns of gene B4GALT5, regression over control, 3, 10, 30 nM
